Measured values reported in PMC10687533.
Results are given in words; binding and its absence hold for the method and conditions named. Binding seen in cells or lysates may run through a third protein. Some results given as binding are weak or reduced against the parent protein; the word gives no strength. Where a sequence is shown, tags or fusion partners need not be part of it.

Chains of the proteins cited; added tags and fusions are not shown.
UniProt Q01827: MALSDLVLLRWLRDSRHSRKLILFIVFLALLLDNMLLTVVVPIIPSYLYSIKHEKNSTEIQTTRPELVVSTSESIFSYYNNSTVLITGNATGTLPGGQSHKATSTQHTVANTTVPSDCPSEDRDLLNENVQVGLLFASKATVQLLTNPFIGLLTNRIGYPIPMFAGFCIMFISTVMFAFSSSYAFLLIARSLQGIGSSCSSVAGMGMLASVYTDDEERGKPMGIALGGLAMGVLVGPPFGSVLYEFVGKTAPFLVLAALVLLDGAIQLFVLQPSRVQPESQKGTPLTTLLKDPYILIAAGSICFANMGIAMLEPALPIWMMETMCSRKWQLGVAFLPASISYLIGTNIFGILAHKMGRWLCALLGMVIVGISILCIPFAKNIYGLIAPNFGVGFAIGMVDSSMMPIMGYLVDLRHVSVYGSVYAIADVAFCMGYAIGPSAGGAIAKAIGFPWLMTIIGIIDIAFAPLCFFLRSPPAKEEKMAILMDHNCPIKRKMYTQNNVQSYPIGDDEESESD

Target: vesicular monoamine transporter 2 (VMAT2) (rat) (UniProt Q01827)
Experiment: co-IP; both proteins overexpressed in transfected cells (HeLa for Fig. 1A); lysis buffer 150 mmol/L NaCl, 50 mmol/L Tris-HCl pH 8.0, 5 mmol/L EDTA, 0.4% NP-40; antibodies 2 h at 4 C, protein A/G agarose 2 h; Western blot

B1: Flag-tagged sorting nexin 5 (SNX5) (protein, UniProt B1H267 1-404)
chain: MAAVPELLEQQEEDRSKLRSVSVDLNVDPSLQIDIPDALSERDKVKFTVHTKTTLPTFQSPEFSVTRQHEDFVWLHDTLTETTDYAGLIIPPAPTKPDFDGPREKMQKLGEGEGSMTKEEFAKMKQELEAEYLAVFKKTVSSHEVFLQRLSSHPVLSKDRNFHVFLEYDQDLSVRRKNTKEMFGGFFKSVVKSADEVLFSGVKEVDDFFEQEKNFLINYYNRIKDSCAKADKMTRSHKNVADDYIHTAACLHSLALEEPTVIKKYLLKVAELFEKLRKVEGRVSSDEDLKLTELLRYYMLNIEAAKDLLYRRTKALIDYENSNKALDKARLKSKDVKLAETHQQECCQKFEQLSESAKEELINFKRKRVAAFRKNLIEMSELEIKHARNNVSLLQSCIDLFKNN
  binding: binds
